This test has as its target RhoA, yeast two-hybrid fusion, P61586. The test can be described thus: two-hybrid; LexA and Gal4 activation domain fusions in yCK580 yeast; beta-galactosidase liquid assay (X-Gal). Particulars: remark: other sources report otherwise.

No constants are given. Whether binding was seen depends on the method and setting. Tags and fused reporters may be left off the sequences shown.

B1: full-length ROCK1, yeast two-hybrid fusion, Q13464 1-1354 (enzyme)
chain: MSTGDSFETRFEKMDNLLRDPKSEVNSDCLLDGLDALVYDLDFPALRKNKNIDNFLSRYKDTINKIRDLRMKAEDYEVVKVIGRGAFGEVQLVRHKSTRKVYAMKLLSKFEMIKRSDSAFFWEERDIMAFANSPWVVQLFYAFQDDRYLYMVMEYMPGGDLVNLMSNYDVPEKWARFYTAEVVLALDAIHSMGFIHRDVKPDNMLLDKSGHLKLADFGTCMKMNKEGMVRCDTAVGTPDYISPEVLKSQGGDGYYGRECDWWSVGVFLYEMLVGDTPFYADSLVGTYSKIMNHKNSLTFPDDNDISKEAKNLICAFLTDREVRLGRNGVEEIKRHLFFKNDQWAWETLRDTVAPVVPDLSSDIDTSNFDDLEEDKGEEETFPIPKAFVGNQLPFVGFTYYSNRRYLSSANPNDNRTSSNADKSLQESLQKTIYKLEEQLHNEMQLKDEMEQKCRTSNIKLDKIMKELDEEGNQRRNLESTVSQIEKEKMLLQHRINEYQRKAEQENEKRRNVENEVSTLKDQLEDLKKVSQNSQLANEKLSQLQKQLEEANDLLRTESDTAVRLRKSHTEMSKSISQLESLNRELQERNRILENSKSQTDKDYYQLQAILEAERRDRGHDSEMIGDLQARITSLQEEVKHLKHNLEKVEGERKEAQDMLNHSEKEKNNLEIDLNYKLKSLQQRLEQEVNEHKVTKARLTDKHQSIEEAKSVAMCEMEKKLKEEREAREKAENRVVQIEKQCSMLDVDLKQSQQKLEHLTGNKERMEDEVKNLTLQLEQESNKRLLLQNELKTQAFEADNLKGLEKQMKQEINTLLEAKRLLEFELAQLTKQYRGNEGQMRELQDQLEAEQYFSTLYKTQVKELKEEIEEKNRENLKKIQELQNEKETLATQLDLAETKAESEQLARGLLEEQYFELTQESKKAASRNRQEITDKDHTVSRLEEANSMLTKDIEILRRENEELTEKMKKAEEEYKLEKEEEISNLKAAFEKNINTERTLKTQAVNKLAEIMNRKDFKIDRKKANTQDLRKKEKENRKLQLELNQEREKFNQMVVKHQKELNDMQAQLVEECAHRNELQMQLASKESDIEQLRAKLLDLSDSTSVASFPSADETDGNLPESRIEGWLSVPNRGNIKRYGWKKQYVVVSSKKILFYNDEQDKEQSNPSMVLDIDKLFHVRPVTQGDVYRAETEEIPKIFQILYANEGECRKDVEMEPVQQAEKTNFQNHKGHEFIPTLYHFPANCDACAKPLWHVFKPPPALECRRCHVKCHRDHLDKKEDLICPCKVSYDVTSARDMLLLACSQDEQKKWVTHLVKKIPKNPPSGFVRASPRTLSTRSTANQSFRKVVKNTSGKTS
B1: the binding result was “no binding”.

These data come from article PMC4686654.
